{"source": "PubChem BioAssay AID504786 (Drosophila RNAi Screening Center, 2011)", "assay": "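Fly genes required for HIF-dependent transcription when hypoxia is mimicked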 (primary screen)", "cells": "Drosophila S2 cells with a stable HIF luciferase reporter", "reagent": "long dsRNA against Drosophila genes, about 0.2 µg dsRNA per well of a 384-well plate", "time to read-out": "three days of knock-down, then 20 h of DFO before reading", "treatment": "desferrioxamine (DFO) at 100 µM, an iron chelator that mimics hypoxia, for 20 h", "measured": "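HIF reporter luminescence in cells given 100 µM DFO for 20 h, using the mouse ldh-a hypoxia-response element, scored as per-plate z-scores; higher means greater loss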", "direction": "z-score: higher = stronger loss of HIF reporter signal", "note": "The screen tested about 21,000 reagents; this is a random part of those that have a named target and a result. 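Primary screen; positive scores mean lost reporter signal, so the sign may be inverted from the usual convention.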 The numbers tell different reagents against one gene apart. Further read-outs or replicates are left out here."}
{"gene":"CG5567","reagent":1,"z-score, replicate 1":-0.4}
{"gene":"CG13074","reagent":1,"z-score, replicate 1":-0.3}
{"gene":"CHKov2 (CHK domain ov2)","reagent":1,"z-score, replicate 1":-0.3}
{"gene":"lncRNA:CR32368 (long non-coding RNA:CR32368)","reagent":1,"z-score, replicate 1":0.2}
{"gene":"yuri (yuri gagarin)","reagent":1,"z-score, replicate 1":-0.7}
{"gene":"yuri (yuri gagarin)","reagent":2,"z-score, replicate 1":1.1}
{"gene":"yuri (yuri gagarin)","reagent":3,"z-score, replicate 1":-0.1}
{"gene":"yuri (yuri gagarin)","reagent":4,"z-score, replicate 1":-0.4}
{"gene":"Polr3D (RNA polymerase III subunit D)","reagent":1,"z-score, replicate 1":0.5}
{"gene":"CG10026","reagent":1,"z-score, replicate 1":-0.3}
{"gene":"arx (asterix)","reagent":1,"z-score, replicate 1":-0.4}
{"gene":"tna (tonalli)","reagent":1,"z-score, replicate 1":-0.3}
{"gene":"tna (tonalli)","reagent":2,"z-score, replicate 1":0.5}
{"gene":"trv (trivet)","reagent":1,"z-score, replicate 1":-0.4}
{"gene":"trv (trivet)","reagent":2,"z-score, replicate 1":-0.3}
{"gene":"trv (trivet)","reagent":3,"z-score, replicate 1":-0.3}
{"gene":"trv (trivet)","reagent":4,"z-score, replicate 1":-0.3}
{"gene":"CG9231","reagent":1,"z-score, replicate 1":-0.3}
{"gene":"Cbp53E (Calbindin 53E)","reagent":1,"z-score, replicate 1":-0.3}
{"gene":"Eph (Eph receptor tyrosine kinase)","reagent":1,"z-score, replicate 1":-0.2}
{"gene":"Dip-B (Dipeptidase B)","reagent":1,"z-score, replicate 1":-0.3}
{"gene":"p23","reagent":1,"z-score, replicate 1":-0.4}
{"gene":"mRpS26 (mitochondrial ribosomal protein S26)","reagent":1,"z-score, replicate 1":0}
{"gene":"CG13858 (retired record)","reagent":1,"z-score, replicate 1":-0.2}
{"gene":"CG13858 (retired record)","reagent":2,"z-score, replicate 1":0.2}
{"gene":"CG13858 (retired record)","reagent":3,"z-score, replicate 1":0}
{"gene":"CG13858 (retired record)","reagent":4,"z-score, replicate 1":1.1}
{"gene":"Arl4 (ADP ribosylation factor-like 4)","reagent":1,"z-score, replicate 1":-0.3}
{"gene":"CG18605","reagent":1,"z-score, replicate 1":-0.2}
{"gene":"CG31729","reagent":1,"z-score, replicate 1":-0.3}
{"gene":"CG31729","reagent":2,"z-score, replicate 1":0.1}
{"gene":"HnRNP-K (Heterogeneous nuclear ribonucleoprotein K)","reagent":1,"z-score, replicate 1":0.1}
{"gene":"Dh31 (Diuretic hormone 31)","reagent":1,"z-score, replicate 1":-0.3}
{"gene":"CG42342","reagent":1,"z-score, replicate 1":-0.5}
{"gene":"CG42342","reagent":2,"z-score, replicate 1":4.2}
{"gene":"CG42342","reagent":3,"z-score, replicate 1":-0.2}
{"gene":"CG42342","reagent":4,"z-score, replicate 1":0}
{"gene":"CG42342","reagent":5,"z-score, replicate 1":0.1}
{"gene":"CG9016","reagent":1,"z-score, replicate 1":-0.4}
{"gene":"CG2321","reagent":1,"z-score, replicate 1":-0.3}

Targets listed so far whose gene name starts with A or a:
{"gene":"arx (asterix)","reagent":1,"z-score, replicate 1":-0.4}
{"gene":"Arl4 (ADP ribosylation factor-like 4)","reagent":1,"z-score, replicate 1":-0.3}
